# In PubChem BioAssay AID1671190 (National Center for Advancing Translational Sciences (NCATS), 2021):
# Sequences of proteins named here, by UniProt entry; tags and fusion partners are left off. A change or cut given only in a name is not applied to a line headed by its entry.
# UniProt P18054: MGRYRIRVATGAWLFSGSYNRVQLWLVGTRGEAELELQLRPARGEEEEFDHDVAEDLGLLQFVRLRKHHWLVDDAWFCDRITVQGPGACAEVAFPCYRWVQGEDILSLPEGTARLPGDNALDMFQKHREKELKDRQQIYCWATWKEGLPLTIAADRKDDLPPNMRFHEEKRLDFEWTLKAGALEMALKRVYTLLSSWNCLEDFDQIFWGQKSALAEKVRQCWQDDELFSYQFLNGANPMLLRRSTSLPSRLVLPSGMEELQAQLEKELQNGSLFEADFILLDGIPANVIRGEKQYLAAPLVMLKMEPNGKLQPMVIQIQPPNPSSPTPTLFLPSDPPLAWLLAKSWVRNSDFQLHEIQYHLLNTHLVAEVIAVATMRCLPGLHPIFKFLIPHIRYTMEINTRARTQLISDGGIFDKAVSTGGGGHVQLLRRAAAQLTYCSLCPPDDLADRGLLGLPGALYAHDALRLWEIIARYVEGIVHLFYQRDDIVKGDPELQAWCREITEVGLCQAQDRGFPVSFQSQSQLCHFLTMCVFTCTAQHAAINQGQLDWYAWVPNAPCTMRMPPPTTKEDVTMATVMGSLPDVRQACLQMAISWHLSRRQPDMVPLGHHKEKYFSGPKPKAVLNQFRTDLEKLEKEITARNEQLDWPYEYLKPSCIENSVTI
# About 6,100 (1.1%) of roughly 580,000 compounds were called active. The inconclusive results got no clear call from the source; some entries with a clear call stand among them for comparison. Calls follow the shape of the dose curve; as a rule, active = well fitted inhibition curve with a large enough effect; inconclusive = small, poorly fitted or top-dose-only effect, or another doubt; inactive = no such curve, though single readings can be large or run the other way. A potency beside an inconclusive call is a rough fit, not a confirmed value.
# Target: Polyunsaturated fatty acid lipoxygenase ALOX12 (Homo sapiens) (UniProt P18054)
# Test: Primary qHTS assay for inhibitors of human arachidonate 12S-lipoxygenase (ALOX12): Round 2
# Conditions: purified 12hLO, xylenol orange hydroperoxide absorbance; activity change, negative = inhibition: at 108 µM (top of the series) unless noted
# How it was run: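 Hydroperoxide product was detected by ferrous iron/xylenol orange as the 573 to 405 nm absorbance ratio. Arachidonic acid at 40 uM (final) was turned over for 30 min at room temperature by 150 nM human 12hLO, pH 7.0 Hepes buffer, after 15 min compound preincubation.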
# % is scaled to controls: 0 for no effect and ±100 for the full control effect; potency is read from the fitted curve at half-maximal effect.
SMILES,Potency,"activity change, negative = inhibition"
COc1ccnc(-c2nnc3ccc(N4CCc5ccccc5CC4)nn23)c1,active: 50.1 µM,–
CCCN(CC#N)CC(=O)NC(=O)NCc1ccccc1,"inconclusive: 100 µM [inhibitor, single point]",–
CN(C)c1ccc(-c2n[nH]c(=S)n2-c2ccccc2)cc1,"inconclusive: 35.5 µM [inhibitor, partial curve, poor fit]",–
Cc1cccc(C2CCCN2S(=O)(=O)c2ccc(C(C)(C)C)cc2)c1 (stereo unspecified),–,inactive: -3.15%
CCC(c1nnnn1Cc1ccco1)N1CCN(C(=O)c2ccco2)CC1 (stereo unspecified),"inconclusive: 39.8 µM [inhibitor, partial curve, poor fit]",–
Cc1ccc(NC(=S)NCc2ccccc2)cc1[N+](=O)[O-],"inconclusive: 25.1 µM [inhibitor, full curve]",–
Cc1cc(C)n(C)c(=O)c1C(=O)N1CCC2(CC1)CNC(C(=O)O)C2 (stereo unspecified),"inconclusive: 2 µM [inhibitor, full curve, poor fit]",–
Cn1c(SCc2nn[nH]n2)nc2c1c(=O)n(Cc1ccccc1Cl)c(=O)n2C,"inconclusive: 31.6 µM [inhibitor, partial curve]",–
COc1ccc(Nc2nc(N)nc(COc3ccc(OC)cc3)n2)cc1,–,inactive: -0.882%
COC(=O)C(N)Cc1ccc(O)c(O)c1 (stereo unspecified),active: 6.31 µM,–
O=C(Nc1ccccc1C(=O)NC1CCCC1)c1ccnc(-n2cncn2)c1,"inconclusive: 89.1 µM [inhibitor, partial curve, poor fit]",–
Cc1nn(C(C)C)c(C)c1CN1CC[C@@H](c2ccc3c(c2)OCO3)[C@H](O)C1,"inconclusive: 15.8 µM [inhibitor, full curve]",–
CCOc1ccc(CC2S/C(=N/c3ccccn3)NC2=O)cc1 (stereo unspecified),–,inactive: 21.2%
CN(CC1CCCCO1)C(=O)c1coc(COc2ccc3c(c2)OCO3)n1 (stereo unspecified),"inconclusive: 39.8 µM [inhibitor, partial curve]",–
COC(=O)C1=C(CS(=O)(=O)c2ccc(OC)cc2)NC(=O)NC1c1cccc(Cl)c1 (stereo unspecified),"inconclusive: 44.7 µM [inhibitor, partial curve, poor fit]",–
Fc1ccc(-c2nnc3ccc(N4CCc5ccccc5C4)nn23)cc1,"inconclusive: 44.7 µM [inhibitor, partial curve, poor fit]",–
COc1ccc([C@@H]2CC=C(C(=O)O)[C@H](c3ccc(Cl)cc3)N2S(=O)(=O)c2ccc(C)cc2)cc1OC,"inconclusive: 89.1 µM [inhibitor, partial curve, poor fit]",–
NC(=O)C1CCN(C(=O)COC(=O)c2cc3ccccc3[nH]2)CC1,–,inactive: 5.77%
O=C(Nc1ccccc1)c1nn(-c2ccccc2)c(=O)cc1C(F)(F)F,–,inactive: 65.8%
OCC1(Cc2ccc(F)cc2)CCCN(c2nc3ccccc3s2)C1 (stereo unspecified),"inconclusive: 20 µM [inhibitor, full curve]",–
C=CCNC(=S)NN=C1CCC(c2ccccc2)CC1 (stereo unspecified),"inconclusive: 56.2 µM [inhibitor, partial curve, poor fit]",–

# Nothing new here: an excerpt of the list.
SMILES,Potency,"activity change, negative = inhibition"
Cc1ccc(NC(=S)NCc2ccccc2)cc1[N+](=O)[O-],"inconclusive: 25.1 µM [inhibitor, full curve]",–
Cc1cc(C)n(C)c(=O)c1C(=O)N1CCC2(CC1)CNC(C(=O)O)C2 (stereo unspecified),"inconclusive: 2 µM [inhibitor, full curve, poor fit]",–

# Additional entries follow.

SMILES,Potency,"activity change, negative = inhibition"
Cc1ccc(C(=O)N2CCC3(CC2)CN(C2CCC2)CC3CO)s1 (stereo unspecified),"inconclusive: 25.1 µM [inhibitor, single point]",–
Cc1cc(S(=O)(=O)Nc2cccc3c2CCCC3)ccc1OCC(=O)O,"inconclusive: 89.1 µM [inhibitor, partial curve, poor fit]",–
Cc1ccc(S(=O)(=O)NC(=O)Cn2nnc(-c3ccccc3)c2COc2ccc3ccccc3c2)cc1,"inconclusive: 70.8 µM [inhibitor, partial curve, poor fit]",–
O=C(NCCCn1ccnc1)/C(=C\c1cccnc1)NC(=O)c1ccccc1F,–,inactive: 390%
c1ccc(CCc2nc3nccc(-c4ccsc4)n3n2)cc1,–,inactive: 26%
COC(=O)[C@]1(C)N[C@H](CN(C)S(=O)(=O)c2ccc(-c3ccccc3)cc2)[C@@H]2C(=O)N(C)C(=O)[C@@H]21,"inconclusive: 79.4 µM [inhibitor, partial curve, poor fit]",–
CCOC(=O)/C=c1\s/c(=C\c2ccc3cc(OC)ccc3c2)c(=O)n1CC(=O)NCc1ccc2c(c1)OCO2,–,inactive: -2.98%
Cc1cccc(NC(=O)CN2C(=O)S/C(=C\c3ccc(-c4cccc(C(=O)O)c4C)o3)C2=O)c1,–,inactive: -23.6%
Cc1cccc(-c2ocnc2C(=O)Nc2ccccc2C(=O)N2CCCC2)c1,"inconclusive: 112 µM [inhibitor, single point]",–
C=C(C)CSc1nc2sc3c(c2c(=O)n1-c1ccccc1)CCN(C)C3,"inconclusive: 70.8 µM [inhibitor, partial curve, poor fit]",–
CCCCCC[N+](C)(C)CC/C=C1/c2ccccc2Sc2ccc(Cl)cc21,"inconclusive: 50.1 µM [inhibitor, partial curve, poor fit]",–
CCc1ccc2c(c1)C(=O)C[C@]1(CCC[C@H](C)C1)O2,"inconclusive: 141 µM [inhibitor, partial curve, poor fit]",–
COCc1ccc(CN2CCc3c([nH]c4ccccc34)C2CC(C)C)o1 (stereo unspecified),"inconclusive: 44.7 µM [inhibitor, partial curve, poor fit]",–
Cc1ccc(Cc2nc3ccccc3nc2SCC(=O)N2CCN(c3ccccc3F)CC2)cc1,–,inconclusive: -35.9% [inhibitor]
CSc1ccccc1NC(=S)N/N=C/c1cccn1Cc1ccc(F)cc1,"inconclusive: 35.5 µM [inhibitor, partial curve, poor fit]",–
Cc1cnc(C(=O)N2CCn3c(nnc3[C@@H]3C[C@@H](O)CN3Cc3ccccc3)C2)cn1,–,inactive: 11.3%
CC1CN(C2CCN(C(=O)c3ccccc3)CC2)CC(C)O1 (stereo unspecified),"inconclusive: 2 µM [inhibitor, full curve, poor fit]",–
CCCOc1ccc(C2C3=C(CC(C)(C)CC3=O)Nc3cc4c(cc32)OCO4)cc1 (stereo unspecified),"inconclusive: 50.1 µM [inhibitor, partial curve, poor fit]",–
O=C(CN1CCN(c2ccc([N+](=O)[O-])c3cnccc23)CC1)Nc1ccc(OC(F)(F)F)cc1,–,inactive: 14.4%
COC(=O)c1cn[nH]c1NC(=S)Nc1ccccc1C,"inconclusive: 44.7 µM [inhibitor, partial curve]",–
